Source: PubChem BioAssay AID1508597 (Cure First, 2020)
Test: 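Survival screen with siRNA in ovarian cancer cells derived from patients, with or without rucaparib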 (primary screen). Cells: human ovarian carcinoma lines grown from tumours: OCI-P5x (papillary serous) and OCI-C5x (clear cell). Reagents: siRNA pool against human genes, 1.25 pmol siRNA per well. Timing: 72 h or 96 h, depending on the cell culture. Treatment: rucaparib 20 µM (about IC30) or vehicle, present until read-out. Rucaparib or vehicle: Rucaparib. Cell line: OCI-P5x (serous). Measured: 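ATP luminescence measured at 72 or 96 h according to the culture, then normalised and expressed as percent viability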. Reading the numbers: viability, normalised: higher = more viable cells remaining. Rule for the call: 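Active when normalised viability falls below 80 percent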. Calls: active = viability under 80%; inactive = viability 80% or more.
This is an unselected part of the about 2,100 reagents, under one of the conditions tested. 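Calls flag viability under 80% in either arm, not effects specific to rucaparib; the reference for percent is not stated.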 Unmarked entries are inactive. Some reagents were tested in more than one well and are listed for each. The record does not give: the 100% reference.

TLR4, technical replicate 1 gave viability, normalised (%) = 60.4 (active).
With TLR4, technical replicate 2, the values are viability, normalised (%) = 62.1 (active).
For TLR4, technical replicate 3, the entry reads viability, normalised (%) = 48 (active).
CSNK1A1, technical replicate 1 gave viability, normalised (%) = 84.9.
CSNK1A1, technical replicate 2 showed viability, normalised (%) = 83.
For CSNK1A1, technical replicate 3, the values are viability, normalised (%) = 99.3.
With RASGRF1, technical replicate 1 the deposit lists viability, normalised (%) = 44.5 (active).
For RASGRF1, technical replicate 2, the entry reads viability, normalised (%) = 52.9 (active).
For RASGRF1, technical replicate 3 the deposit lists viability, normalised (%) = 71.5 (active).
For LMTK1, technical replicate 1, the entry reads viability, normalised (%) = 86.5.
With LMTK1, technical replicate 2 the deposit lists viability, normalised (%) = 97.6.
For LMTK1, technical replicate 3 the deposit lists viability, normalised (%) = 101.
ZDHHC3, technical replicate 1 gave viability, normalised (%) = 72.4 (active).
ZDHHC3, technical replicate 2 scored viability, normalised (%) = 63.5 (active).
ZDHHC3, technical replicate 3 showed viability, normalised (%) = 70.5 (active).
For H2AX, technical replicate 1, the entry reads viability, normalised (%) = 55.4 (active).
H2AX, technical replicate 2 gave viability, normalised (%) = 51.7 (active).
H2AX, technical replicate 3 gave viability, normalised (%) = 57.7 (active).
With NEK7, technical replicate 1, the entry reads viability, normalised (%) = 87.1.
NEK7, technical replicate 2 showed viability, normalised (%) = 92.6.
NEK7, technical replicate 3 gave viability, normalised (%) = 75.1 (active).
For CAMKK1, technical replicate 1, the values are viability, normalised (%) = 85.9.
For CAMKK1, technical replicate 2, the entry reads viability, normalised (%) = 87.1.
CAMKK1, technical replicate 3 scored viability, normalised (%) = 67.4 (active).
HDAC1, technical replicate 1 gave viability, normalised (%) = 90.3.
HDAC1, technical replicate 1 scored viability, normalised (%) = 58.7 (active).
With HDAC1, technical replicate 2, the values are viability, normalised (%) = 61.3 (active).
HDAC1, technical replicate 2 gave viability, normalised (%) = 114.
With HDAC1, technical replicate 3, the entry reads viability, normalised (%) = 81.9.
With HDAC1, technical replicate 3 the deposit lists viability, normalised (%) = 101.
KAT8, technical replicate 1 scored viability, normalised (%) = 49.5 (active).
KAT8, technical replicate 2 gave viability, normalised (%) = 60.7 (active).
KAT8, technical replicate 3 scored viability, normalised (%) = 56.6 (active).
HM13, technical replicate 1 showed viability, normalised (%) = 76.7 (active).
For HM13, technical replicate 2, the values are viability, normalised (%) = 60.2 (active).
HM13, technical replicate 3 scored viability, normalised (%) = 80.
For TK2, technical replicate 1, the values are viability, normalised (%) = 74.9 (active).
With TK2, technical replicate 2, the values are viability, normalised (%) = 64.4 (active).
TK2, technical replicate 3 gave viability, normalised (%) = 50 (active).
With MKNK2, technical replicate 1, the entry reads viability, normalised (%) = 89.6.
With MKNK2, technical replicate 2, the entry reads viability, normalised (%) = 81.9.
MKNK2, technical replicate 3 gave viability, normalised (%) = 76.2 (active).
